US20170114333
Where a protein sequence is shown, tags need not be part of it.

Tested on: T1, Hermes transposase wild type (1-612) (Musca domestica)
T1 sequence: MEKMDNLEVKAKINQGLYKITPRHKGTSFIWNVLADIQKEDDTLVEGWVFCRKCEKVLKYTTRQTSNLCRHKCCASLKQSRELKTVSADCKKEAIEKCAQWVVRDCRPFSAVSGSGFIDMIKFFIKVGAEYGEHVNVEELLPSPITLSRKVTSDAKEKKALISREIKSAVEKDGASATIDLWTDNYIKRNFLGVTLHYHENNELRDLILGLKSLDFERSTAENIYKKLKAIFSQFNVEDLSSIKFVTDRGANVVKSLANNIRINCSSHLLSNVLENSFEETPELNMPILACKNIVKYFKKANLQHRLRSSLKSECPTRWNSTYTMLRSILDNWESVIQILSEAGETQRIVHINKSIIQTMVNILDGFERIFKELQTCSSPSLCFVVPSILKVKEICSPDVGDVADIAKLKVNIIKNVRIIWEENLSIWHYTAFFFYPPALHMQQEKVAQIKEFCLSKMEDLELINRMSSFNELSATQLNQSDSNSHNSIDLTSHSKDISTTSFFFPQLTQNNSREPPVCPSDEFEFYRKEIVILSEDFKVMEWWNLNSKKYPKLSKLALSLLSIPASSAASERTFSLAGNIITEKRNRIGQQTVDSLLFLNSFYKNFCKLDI
Experiment: enzyme reaction in vitro
Settings: 5'-phosphate on top strand; strand transfer into pUC19, 5 mM MgCl2, 0-300 mM KCl titration, 30 C; purified recombinant protein

TCAGAGAACAACAACAAGTGGCTTATTTTGA / TCAAAATAAGCCACTTGTTGTTGTTCTCTG [Hermes pre-cleaved L-end]
activity on this sequence: active
